The values below come from paper PMC12040169 (PLOS Biology, 2025).

The other results are listed elsewhere or left out.

The test system of this experiment is T1, CTL2-GFP (C. trachomatis L2/434/Bu, GFP-expressing).
T1 construct: L2/434/Bu, GFP-expressing
More on the design: species or system HeLa; Intracellular C. trachomatis growth in HeLa cells, bulk GFP fluorescence relative to DMSO. The note with it: bulk GFP, single well; 28.5 h, 10 µM; inhibitor.
Consider `CCCC1CCCN(Cc2nnnn2-c2ccc(S(C)(=O)=O)cc2)C1` (centres unmarked) [CBK304142], for which the “% of control remaining” value is recorded as 97.3158%. Turning to `O=C(c1cc(-c2ccc(Cl)cc2)[nH]n1)N1CCNCC1` [CBK116548], the “% of control remaining” value came out at 64.7568%. The figure for `CCn1c(CN2CCCC2c2nc(N(C)C)ncc2-c2ccccc2)nc2ccccc21` (centres unmarked) [CBK286070] is 87.8153%; for `COc1cccc2sc(Nc3nc4c(s3)C(=O)CC(C)(C)C4)nc12` [CBK287467] it is 92.1804%. Under `CC(NC(=O)c1ncoc1-c1ccccc1)c1ccccn1` (centres unmarked) [CBK283889] stands 113.939%. Under `Cc1cc(Cl)c(S(=O)(=O)N2CCCC2)cc1OCC(=O)NC1CCCCC1` [CBK266781] stands 120.8%; under `CN(C)S(=O)(=O)N(C)c1ccc(C(=O)O)cc1` [CBK287244], 123.427%; under `Cc1ccc(CN2CCC3(CCCNC3=O)CC2)cc1` [CBK284822], 121.236%. For the compound `NC(=O)c1ccc(NC(=O)N2CCN(CCc3ccccc3)CC2)cc1` [CBK158924], the “% of control remaining” value is reported as 127.861%.

For the compound `COc1ccc2c(c1)CC(=O)NC21CCN(C(=O)NC(C)C)CC1` [CBK047261], the “% of control remaining” value was determined as 99.1759%. The figure for `COc1ccc(-c2cc(C(=O)Nc3ccc(CCO)cc3)cnc2-c2cccc(C)c2)cn1` [CBK037461] is 180.108%; for `COc1ccccc1C(NC(=O)C1CCN(CCc2c[nH]c3ccccc23)CC1)c1ccccn1` (centres unmarked) [CBK147923] it is 152.59%. On to `O=C(NCC1COc2ccccc2O1)c1ccc2[nH]ccc2c1` (centres unmarked) [CBK149054], for which the “% of control remaining” value was found to be 120.773%.

As for `CCCNc1nccnc1-c1ccccc1F` [CBK037231], the “% of control remaining” value came out at 104.197%. The figure for `CC(C)(C)c1cc(NC(=O)CSc2ccc(S(=O)(=O)N3CCCC3)cn2)n(-c2ccccc2)n1` [CBK297099] is 144.964%; for `CC1CCCCN1Cc1nc2c(c(=O)n(C)c(=O)n2C)n1Cc1ccccc1` (centres unmarked) [CBK269203] it is 95.1513%. Under `Cc1ccc(C(=O)N2CCN(S(=O)(=O)c3sc(C(=O)O)c(C)c3C(=O)O)CC2)cc1` [CBK297120] stands 191.41%. With `Cc1oc(-c2ccccc2)cc1C(=O)Nc1ccc(N2CCNCC2)nc1` [CBK034127T], the “% of control remaining” value is recorded as 89.8617%. Turning to `Cc1ccccc1Cc1cccc(C2CCN(CC(=O)Nc3nccs3)CC2)n1` [CBK286089], the “% of control remaining” value stood at 84.3725%.

On to `Cc1ccc(Cn2nc(C)c(C(=O)OCc3cc(=O)n4ccccc4n3)c2Cl)cc1` [CBK297550], for which the “% of control remaining” value stood at 86.6961%. Regarding `CCOc1ccc(S(=O)(=O)N2CCCN(CCCC#N)CC2)c2cccnc12` [CBK062935], the “% of control remaining” value is on record as 113.284%.

Turning to `Cc1cc(C)n(-c2cc(N3CCN(S(=O)(=O)Cc4ccccc4)CC3)ccc2[N+](=O)[O-])n1` [CBK264407], the “% of control remaining” value is reported as 102.843%. Under `CN1CCN(C(=O)c2ccsc2NS(=O)(=O)Cc2ccccc2)CC1` [CBK042266] stands 105.764%.

With `O=C(CSc1n[nH]c(=O)[nH]c1=O)N/N=C/c1cccs1` [CBK263508], the “% of control remaining” value was found to be 107.94%. The figure for `CN(Cc1ccsc1)C(=O)c1cccc(S(=O)(=O)NCC2CCCO2)c1` (centres unmarked) [CBK304232] is 79.4%; for `O=C(CN1CCN(S(=O)(=O)N2CCCCC2)CC1)Nc1ccc(Br)cc1` [CBK269515] it is 112.178%. The figure for `COc1ccc(C(=O)N[C@H]2C[C@H]3C(=O)NC[C@@H](CCC(=O)N4CCN(C)CC4)N3C2)cc1` [CBK289016] is 125.394%. Under `CCCC(=O)N1CCC(c2nnc(-c3ccsc3)o2)CC1` [CBK283377] stands 110.431%; under `CCCc1cc(C(=O)NC(C)(C)CN2CCCC(C)C2)[nH]n1` (centres unmarked) [CBK282467], 147.254%; under `O=C(CN1CCC(NC(=O)c2ccccc2)CC1)Nc1ccccc1` [CBK074716], 121.734%. As for `COc1cc(/C=C(/C#N)c2ccc(C(=O)O)cc2)ccc1OCc1cccc([N+](=O)[O-])c1` [CBK269057], the “% of control remaining” value turned out to be 83.7671%.

For the compound `COc1ccccc1/C=C/c1nn2c(C(C)C)nnc2s1` [CBK269501], the “% of control remaining” value turned out to be 142.201%. The figure for `O=C1c2cccc3cccc(c23)C(=O)N1CCN1CCN(CC(O)COc2ccc(Cl)cc2Cl)CC1` (centres unmarked) [CBK264881] is 100%; for `Cc1nn2c(C3CCCNC3)ccnc2c1-c1ccc(F)cc1` (centres unmarked) [CBK284139] it is 100.293%. On to `O=C(CSc1nc2ccccc2[nH]1)c1ccccc1` [CBK261298], for which the “% of control remaining” value was determined as 110.641%.

Take `Fc1ccc(C2CCCN(CCCOc3cccc(F)c3)C2)cc1` (centres unmarked) [CBK016228B]: the “% of control remaining” value amounted to 100%.

For the compound `Cc1ccc(S(=O)(=O)NCC(=O)N2CCOCC2)cc1[N+](=O)[O-]` [CBK050597], the “% of control remaining” value came to 123.447%. Consider `O=C(N/N=C\c1ccccc1O)c1nc([N+](=O)[O-])n[nH]1` [CBK261475], for which the “% of control remaining” value is on record as 112.593%.

For `Cn1nc(NC(=O)Cc2ccsc2)c2c(N3CCOCC3)cccc21` [CBK307023], the “% of control remaining” value came to 110.254%. On to `CCn1cc(CN2C3CCC2CC(O)(c2ccccc2F)C3)cn1` (centres unmarked) [CBK282662], for which the “% of control remaining” value turned out to be 132.555%. In the case of `Cc1cc(-c2cn(C)nc2C2CCCCN2C(=O)C2CCC2)on1` (centres unmarked) [CBK283403], the “% of control remaining” value is listed as 122.588%.

For `CCC(=O)N1CC[C@H]2NC(=O)c3ccccc3OCC/C=C/C[C@H]2C1` [CBK291999], the “% of control remaining” value is 136.876%.

For the compound `Fc1ccc(Oc2nccnc2N2CCN(Cc3ccc(Cl)cc3)CC2)cc1` [CBK083010T], the “% of control remaining” value is reported as 163.108%. As to `COc1ccc(C(C)C)cc1-c1cncc(NC(C)CCCC(C)(C)O)n1` (centres unmarked) [CBK065521], the “% of control remaining” value is recorded as 114.259%. With `CC(=O)Nc1c(O)nc(SCC(=O)Nc2ccc(C(C)=O)cc2)[nH]c1=O` [CBK268527], the “% of control remaining” value is 117.667%.

With `CC(=O)NCCNC(=O)c1cc(Br)cnc1NCCOc1ccccc1` [CBK076232], the “% of control remaining” value is given as 85.7393%. Under `S=C1NC2c3ccccc3OC3(CCCCC23)N1` (centres unmarked) [CBK288506] stands 112.801%; under `O=C(c1cc(CO)ccn1)N(Cc1ccccn1)CC1CCCO1` (centres unmarked) [CBK306820], 120.301%. On to `N#CCCCN1CCC2(CC1)CN(CC(N)=O)c1ccccc12` [CBK137024], for which the “% of control remaining” value stood at 89.4647%.

As for `Cc1ccc(-n2c(SCC(=O)N3CCC(C(=O)O)CC3)nc3ccccc3c2=O)cc1C` [CBK297540], the “% of control remaining” value is recorded as 140.412%.
